# From article PMC11026519
# The chains behind the UniProt entries cited, without tags or fusion partners.
# UniProt P52952: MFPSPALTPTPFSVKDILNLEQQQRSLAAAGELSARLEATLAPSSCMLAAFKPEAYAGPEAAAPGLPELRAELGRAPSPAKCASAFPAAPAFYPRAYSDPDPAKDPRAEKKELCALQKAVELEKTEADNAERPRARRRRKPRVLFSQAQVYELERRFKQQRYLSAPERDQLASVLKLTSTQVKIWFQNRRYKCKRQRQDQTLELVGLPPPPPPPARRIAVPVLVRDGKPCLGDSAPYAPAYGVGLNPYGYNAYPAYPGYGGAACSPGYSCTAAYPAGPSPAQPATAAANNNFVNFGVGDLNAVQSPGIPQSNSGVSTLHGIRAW
# UniProt P43694: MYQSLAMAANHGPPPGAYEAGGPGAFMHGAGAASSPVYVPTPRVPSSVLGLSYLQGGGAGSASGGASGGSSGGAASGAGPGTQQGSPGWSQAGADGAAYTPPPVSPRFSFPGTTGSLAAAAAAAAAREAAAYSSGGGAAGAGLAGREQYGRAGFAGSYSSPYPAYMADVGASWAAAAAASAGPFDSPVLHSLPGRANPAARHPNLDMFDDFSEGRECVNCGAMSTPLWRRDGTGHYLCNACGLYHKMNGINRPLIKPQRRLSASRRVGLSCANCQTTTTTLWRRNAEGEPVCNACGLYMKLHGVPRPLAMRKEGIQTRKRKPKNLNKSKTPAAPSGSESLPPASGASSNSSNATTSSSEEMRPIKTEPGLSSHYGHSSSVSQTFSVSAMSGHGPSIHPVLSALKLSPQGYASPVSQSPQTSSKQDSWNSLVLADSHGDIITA
# Results are given in words; binding and its absence hold for the method and conditions named. Some binding calls cover weakened binding; strength is not graded here.
# Target: NKX2-5 with N-terminal SH-tag (human) (UniProt P52952)
# Experiment: AlphaScreen or HTRF; whole cell lysates of COS-1 cells expressing GATA4-V5 (1,000 cells per well) and NKX2-5-SH (2,500 cells per well) combined in Alpha Screen sample buffer (50 mM Tris-HCl pH 7.4, NaCl, 0.1% BSA) with DMSO or compound 1 dilution series, 60 min at 4 °C; then V5-acceptor beads and Strep-Tactin donor beads, 20 µg/mL each, 60 min at room temperature
substance,measurement,value
GATA4 protein with C-terminal V5-tag (from UniProt P43694 1-442),binding,binds
